# Earlier results in patent US8349895B2, “Products containing highly unsaturated fatty acids for use by women during stages of preconception, pregnancy and lactation/post-partum” (DSM IP Assets B.V., priority 2001, dated 2013).
# For at least one compound, name, drawing or mass did not settle the structure.
# Details: maternal supplementation, preliminary data
smiles,measurement,value
"CC/C=C\C/C=C\C/C=C\C/C=C\C/C=C\C/C=C\CCC(=O)O [DHA, docosahexaenoic acid]",length of babies at birth,longer babies at birth
